# According to the supplement of paper PMC10032668:
# By UniProt entry, the sequences of proteins in these tests, tags left out.
# CBX2, Q14781, UniProt Q14781, whole entry: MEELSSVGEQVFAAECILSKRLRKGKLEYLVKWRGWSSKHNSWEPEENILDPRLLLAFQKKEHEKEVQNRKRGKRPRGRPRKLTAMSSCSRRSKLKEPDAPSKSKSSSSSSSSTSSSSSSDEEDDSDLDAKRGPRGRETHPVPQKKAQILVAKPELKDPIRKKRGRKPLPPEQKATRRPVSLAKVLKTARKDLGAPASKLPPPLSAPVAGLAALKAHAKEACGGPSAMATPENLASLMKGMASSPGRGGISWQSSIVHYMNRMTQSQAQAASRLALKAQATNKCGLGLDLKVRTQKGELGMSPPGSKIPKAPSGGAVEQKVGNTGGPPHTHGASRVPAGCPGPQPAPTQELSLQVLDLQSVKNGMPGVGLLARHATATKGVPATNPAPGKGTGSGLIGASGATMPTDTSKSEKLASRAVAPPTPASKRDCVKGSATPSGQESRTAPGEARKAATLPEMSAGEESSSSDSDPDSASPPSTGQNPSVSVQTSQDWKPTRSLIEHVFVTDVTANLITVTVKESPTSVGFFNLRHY
# CLPP, Q16740, UniProt Q16740, whole entry: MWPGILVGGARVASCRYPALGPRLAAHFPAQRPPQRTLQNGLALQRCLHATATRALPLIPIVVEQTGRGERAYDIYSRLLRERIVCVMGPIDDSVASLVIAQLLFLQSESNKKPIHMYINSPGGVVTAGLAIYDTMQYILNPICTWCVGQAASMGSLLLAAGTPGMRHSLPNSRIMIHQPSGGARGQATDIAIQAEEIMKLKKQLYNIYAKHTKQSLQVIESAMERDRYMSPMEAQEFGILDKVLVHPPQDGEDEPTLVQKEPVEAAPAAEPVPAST
# PLK1, P53350, UniProt P53350, whole entry: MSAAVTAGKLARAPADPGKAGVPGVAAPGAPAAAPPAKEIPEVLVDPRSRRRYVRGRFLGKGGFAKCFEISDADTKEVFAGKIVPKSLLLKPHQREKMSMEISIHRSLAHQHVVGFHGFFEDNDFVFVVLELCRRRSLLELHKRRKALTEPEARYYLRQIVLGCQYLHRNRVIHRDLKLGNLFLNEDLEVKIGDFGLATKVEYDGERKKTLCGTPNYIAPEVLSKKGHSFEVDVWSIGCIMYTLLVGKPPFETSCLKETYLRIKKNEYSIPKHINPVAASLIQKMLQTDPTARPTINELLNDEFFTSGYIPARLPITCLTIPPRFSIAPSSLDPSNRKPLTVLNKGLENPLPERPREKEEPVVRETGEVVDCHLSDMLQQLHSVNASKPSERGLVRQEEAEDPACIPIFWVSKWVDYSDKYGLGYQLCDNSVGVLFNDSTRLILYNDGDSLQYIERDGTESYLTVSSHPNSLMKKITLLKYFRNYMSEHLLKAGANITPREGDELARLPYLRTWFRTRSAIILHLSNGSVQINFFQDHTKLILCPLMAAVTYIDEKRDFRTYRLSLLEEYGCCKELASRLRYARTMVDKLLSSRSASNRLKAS
# RAB7A, P51149, UniProt P51149, whole entry: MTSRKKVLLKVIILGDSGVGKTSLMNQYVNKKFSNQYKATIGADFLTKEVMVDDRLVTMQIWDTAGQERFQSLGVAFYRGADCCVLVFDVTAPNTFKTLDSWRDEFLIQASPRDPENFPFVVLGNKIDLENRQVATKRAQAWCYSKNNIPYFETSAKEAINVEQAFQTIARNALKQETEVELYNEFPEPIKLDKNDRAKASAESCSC
# DNAJC13, O75165, UniProt O75165, whole entry: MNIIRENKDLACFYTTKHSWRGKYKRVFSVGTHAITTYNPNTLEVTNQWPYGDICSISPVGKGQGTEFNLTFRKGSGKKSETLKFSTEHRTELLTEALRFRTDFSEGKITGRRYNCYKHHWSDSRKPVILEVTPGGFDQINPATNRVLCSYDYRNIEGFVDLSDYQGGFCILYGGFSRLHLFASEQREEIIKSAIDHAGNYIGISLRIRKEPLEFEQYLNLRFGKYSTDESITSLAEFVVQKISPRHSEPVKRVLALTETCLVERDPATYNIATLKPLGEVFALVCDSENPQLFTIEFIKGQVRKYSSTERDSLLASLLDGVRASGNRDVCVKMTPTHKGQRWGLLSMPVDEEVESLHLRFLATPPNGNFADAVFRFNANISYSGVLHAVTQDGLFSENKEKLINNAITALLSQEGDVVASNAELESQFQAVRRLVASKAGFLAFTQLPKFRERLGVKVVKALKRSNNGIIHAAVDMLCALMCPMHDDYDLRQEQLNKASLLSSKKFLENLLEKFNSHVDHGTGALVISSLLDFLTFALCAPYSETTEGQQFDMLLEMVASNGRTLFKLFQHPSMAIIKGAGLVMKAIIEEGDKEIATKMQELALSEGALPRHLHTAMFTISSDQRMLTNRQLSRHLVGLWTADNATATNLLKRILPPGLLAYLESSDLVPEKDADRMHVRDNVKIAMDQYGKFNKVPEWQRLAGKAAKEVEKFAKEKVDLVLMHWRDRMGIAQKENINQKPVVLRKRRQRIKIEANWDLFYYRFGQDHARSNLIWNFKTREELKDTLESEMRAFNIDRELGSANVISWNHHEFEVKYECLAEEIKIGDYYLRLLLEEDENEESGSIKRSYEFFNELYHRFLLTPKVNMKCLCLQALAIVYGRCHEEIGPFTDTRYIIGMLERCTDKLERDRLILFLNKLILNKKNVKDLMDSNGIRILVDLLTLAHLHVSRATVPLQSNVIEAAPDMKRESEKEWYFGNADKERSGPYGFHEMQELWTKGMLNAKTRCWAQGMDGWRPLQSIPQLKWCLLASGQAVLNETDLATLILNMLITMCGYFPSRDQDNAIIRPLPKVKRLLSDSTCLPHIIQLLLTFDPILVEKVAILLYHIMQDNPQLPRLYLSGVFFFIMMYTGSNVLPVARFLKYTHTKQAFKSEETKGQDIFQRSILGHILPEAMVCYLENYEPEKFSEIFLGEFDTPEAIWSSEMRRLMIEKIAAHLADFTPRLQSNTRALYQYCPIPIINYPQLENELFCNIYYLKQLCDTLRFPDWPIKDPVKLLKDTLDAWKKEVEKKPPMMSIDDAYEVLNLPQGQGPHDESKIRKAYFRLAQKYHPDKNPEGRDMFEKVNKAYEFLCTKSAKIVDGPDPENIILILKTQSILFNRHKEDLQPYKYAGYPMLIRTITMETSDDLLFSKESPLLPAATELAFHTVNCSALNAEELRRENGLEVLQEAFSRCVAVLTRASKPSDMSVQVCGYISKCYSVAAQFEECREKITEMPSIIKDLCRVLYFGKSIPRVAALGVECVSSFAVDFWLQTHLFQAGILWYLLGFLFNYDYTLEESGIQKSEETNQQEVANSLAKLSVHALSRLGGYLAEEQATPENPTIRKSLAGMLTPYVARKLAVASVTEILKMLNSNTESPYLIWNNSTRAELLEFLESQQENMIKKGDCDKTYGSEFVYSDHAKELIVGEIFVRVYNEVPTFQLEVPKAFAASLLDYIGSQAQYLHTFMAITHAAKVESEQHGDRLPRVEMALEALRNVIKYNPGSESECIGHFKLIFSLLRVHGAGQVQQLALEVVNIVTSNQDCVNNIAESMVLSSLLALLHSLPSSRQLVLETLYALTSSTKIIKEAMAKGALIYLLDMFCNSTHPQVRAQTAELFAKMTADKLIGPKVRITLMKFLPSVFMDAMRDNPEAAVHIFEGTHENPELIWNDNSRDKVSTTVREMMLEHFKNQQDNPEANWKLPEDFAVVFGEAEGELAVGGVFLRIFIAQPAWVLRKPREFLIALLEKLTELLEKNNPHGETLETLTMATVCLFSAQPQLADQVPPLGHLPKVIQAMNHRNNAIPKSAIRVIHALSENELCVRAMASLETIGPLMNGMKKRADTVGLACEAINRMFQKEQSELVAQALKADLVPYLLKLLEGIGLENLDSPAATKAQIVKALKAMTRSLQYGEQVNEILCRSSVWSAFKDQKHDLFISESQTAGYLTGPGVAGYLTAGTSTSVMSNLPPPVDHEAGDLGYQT
# GTF2F2, P13984, UniProt P13984, whole entry: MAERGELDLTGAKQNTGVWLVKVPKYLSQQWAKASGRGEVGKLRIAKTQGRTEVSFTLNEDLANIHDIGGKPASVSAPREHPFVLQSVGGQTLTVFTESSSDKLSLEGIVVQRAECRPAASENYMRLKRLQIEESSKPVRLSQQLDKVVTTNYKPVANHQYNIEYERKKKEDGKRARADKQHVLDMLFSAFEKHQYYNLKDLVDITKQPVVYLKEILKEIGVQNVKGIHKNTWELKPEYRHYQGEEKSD
# HIST1H1E, P10412, UniProt P10412, whole entry: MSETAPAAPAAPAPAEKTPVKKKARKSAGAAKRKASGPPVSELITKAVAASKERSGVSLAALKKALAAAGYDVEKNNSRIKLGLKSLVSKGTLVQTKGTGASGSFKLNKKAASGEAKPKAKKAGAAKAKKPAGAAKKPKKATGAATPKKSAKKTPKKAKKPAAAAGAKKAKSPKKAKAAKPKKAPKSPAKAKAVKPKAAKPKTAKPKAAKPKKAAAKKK
# RGPD5, Q99666, UniProt Q99666, whole entry: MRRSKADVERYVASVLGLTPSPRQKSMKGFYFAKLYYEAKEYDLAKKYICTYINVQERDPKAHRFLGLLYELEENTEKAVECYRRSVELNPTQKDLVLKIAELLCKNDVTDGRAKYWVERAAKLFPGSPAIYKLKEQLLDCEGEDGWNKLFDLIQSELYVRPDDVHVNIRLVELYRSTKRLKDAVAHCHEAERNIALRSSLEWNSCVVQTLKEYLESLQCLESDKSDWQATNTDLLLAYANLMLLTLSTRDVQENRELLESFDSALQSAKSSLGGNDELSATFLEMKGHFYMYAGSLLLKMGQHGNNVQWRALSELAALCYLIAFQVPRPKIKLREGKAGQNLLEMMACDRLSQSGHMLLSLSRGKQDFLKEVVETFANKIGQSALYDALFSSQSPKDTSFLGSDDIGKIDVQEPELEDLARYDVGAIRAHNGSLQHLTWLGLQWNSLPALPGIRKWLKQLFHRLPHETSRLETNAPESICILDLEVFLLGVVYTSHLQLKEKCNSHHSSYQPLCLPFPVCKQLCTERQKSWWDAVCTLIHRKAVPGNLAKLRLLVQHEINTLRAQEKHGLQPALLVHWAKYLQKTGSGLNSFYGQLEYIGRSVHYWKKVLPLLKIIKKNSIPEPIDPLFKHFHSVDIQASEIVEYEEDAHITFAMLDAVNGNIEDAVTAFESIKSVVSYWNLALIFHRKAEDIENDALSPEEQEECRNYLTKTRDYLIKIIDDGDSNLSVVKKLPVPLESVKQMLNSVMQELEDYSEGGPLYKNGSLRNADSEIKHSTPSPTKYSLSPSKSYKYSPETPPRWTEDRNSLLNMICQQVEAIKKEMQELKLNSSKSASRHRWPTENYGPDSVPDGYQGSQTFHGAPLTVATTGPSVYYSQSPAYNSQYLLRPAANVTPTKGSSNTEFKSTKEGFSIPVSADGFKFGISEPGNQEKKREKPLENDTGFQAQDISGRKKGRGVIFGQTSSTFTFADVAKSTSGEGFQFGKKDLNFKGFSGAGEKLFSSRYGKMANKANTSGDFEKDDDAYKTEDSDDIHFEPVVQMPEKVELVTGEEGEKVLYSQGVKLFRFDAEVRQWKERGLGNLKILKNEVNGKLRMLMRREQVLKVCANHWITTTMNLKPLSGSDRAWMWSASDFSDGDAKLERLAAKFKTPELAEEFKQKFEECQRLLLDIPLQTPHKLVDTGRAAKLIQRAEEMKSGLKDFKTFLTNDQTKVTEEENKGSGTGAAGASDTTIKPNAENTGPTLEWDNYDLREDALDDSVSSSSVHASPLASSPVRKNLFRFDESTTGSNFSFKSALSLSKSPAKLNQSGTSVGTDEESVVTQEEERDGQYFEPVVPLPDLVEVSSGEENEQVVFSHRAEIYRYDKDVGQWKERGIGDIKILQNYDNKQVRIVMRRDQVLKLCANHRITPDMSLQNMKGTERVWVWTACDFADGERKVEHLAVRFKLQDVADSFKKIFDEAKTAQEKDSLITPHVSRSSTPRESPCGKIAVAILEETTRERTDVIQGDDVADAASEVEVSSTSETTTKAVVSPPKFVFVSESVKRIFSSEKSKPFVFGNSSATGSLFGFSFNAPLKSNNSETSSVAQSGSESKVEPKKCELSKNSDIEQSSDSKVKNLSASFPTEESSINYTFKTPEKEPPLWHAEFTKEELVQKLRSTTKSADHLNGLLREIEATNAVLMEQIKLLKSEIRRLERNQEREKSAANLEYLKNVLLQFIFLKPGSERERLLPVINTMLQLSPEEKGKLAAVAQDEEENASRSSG
# Some of the results follow. Only hits are listed; about a third recur on repeated control peptides.
# What was measured:
# Experiment in all cases: PRISMA enrichment of interactor (LFQ) in peptide spot vs all other peptide spots (log2 fold change); higher = stronger / more specific binding of the interactor to the peptide
# ACP1, P24666 = target: ACP1, P24666
# Experimental: (§1)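 PRISMA: 15-aa overlapping tiles (offset 8 aa) of 60 microproteins, plus SOS1/GLUT1 control peptides, were spot-synthesized on cellulose membranes in triplicate. Membranes were incubated with benzonase-treated HEK293T lysate, and bound proteins were identified by LC-MS/MS with LFQ. Enrichment is the log2 fold change of each protein in one spot versus all other spots. Only interactors passing the significance cutoff are listed.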
# CBX2, Q14781 = target: CBX2, Q14781
# Experimental: as §1
# CDIPT, O14735 = target: CDIPT, O14735
# Experimental: as §1
# CLPP, Q16740 = target: CLPP, Q16740
# Experimental: as §1
# CPNE3, O75131 = target: CPNE3, O75131
# Experimental: as §1
# ESF1, Q9H501 = target: ESF1, Q9H501
# Experimental: as §1
# GDI2, P50395 = target: GDI2, P50395
# Experimental: as §1
# HSPBP1, Q9NZL4 = target: HSPBP1, Q9NZL4
# Experimental: as §1
# KIF2A, O00139 = target: KIF2A, O00139
# Experimental: as §1
# MACF1 = target: MACF1
# Experimental: as §1
# MRPS2, Q9Y399 = target: MRPS2, Q9Y399
# Experimental: as §1
# MRPS5, P82675 = target: MRPS5, P82675
# Experimental: as §1
# MTOR, P42345 = target: MTOR, P42345
# Experimental: as §1
# PLK1, P53350 = target: PLK1, P53350
# Experimental: as §1
# POLDIP3, Q9BY77 = target: POLDIP3, Q9BY77
# Experimental: as §1
# PWWP2A, Q96N64 = target: PWWP2A, Q96N64
# Experimental: as §1
# RAB7A, P51149 = target: RAB7A, P51149
# Experimental: as §1
# SUPT6H, Q7KZ85 = target: SUPT6H, Q7KZ85
# Experimental: as §1
# UFL1, O94874 = target: UFL1, O94874
# Experimental: as §1
# ACSL3, O95573 = target: ACSL3, O95573
# Experimental: as §1
# AP1B1, Q10567 = target: AP1B1, Q10567
# Experimental: as §1
# BTF3L4, Q96K17 = target: BTF3L4, Q96K17
# Experimental: as §1
# DDX42, Q86XP3 = target: DDX42, Q86XP3
# Experimental: as §1
# DNAJC13, O75165 = target: DNAJC13, O75165
# Experimental: as §1
# FAM207A, Q9NSI2 = target: FAM207A, Q9NSI2
# Experimental: as §1
# FRG1, Q14331 = target: FRG1, Q14331
# Experimental: as §1
# GTF2F2, P13984 = target: GTF2F2, P13984
# Experimental: as §1
# HIST1H1E, P10412 = target: HIST1H1E, P10412
# Experimental: as §1
# LIMA1, Q9UHB6 = target: LIMA1, Q9UHB6
# Experimental: as §1
# OXA1L, Q15070 = target: OXA1L, Q15070
# Experimental: as §1
# PDXDC1, Q6P996 = target: PDXDC1, Q6P996
# Experimental: as §1
# PSMA7, O14818 = target: PSMA7, O14818
# Experimental: as §1
# PUS1, Q9Y606 = target: PUS1, Q9Y606
# Experimental: as §1
# PYCR1, P32322 = target: PYCR1, P32322
# Experimental: as §1
# RAB11A, P62491 = target: RAB11A, P62491
# Experimental: as §1
# RABL3, Q5HYI8 = target: RABL3, Q5HYI8
# Experimental: as §1
# RALY, Q9UKM9 = target: RALY, Q9UKM9
# Experimental: as §1
# RBIS, Q8N0T1 = target: RBIS, Q8N0T1
# Experimental: as §1
# RGPD5, Q99666 = target: RGPD5, Q99666
# Experimental: as §1
# RNF2, Q99496 = target: RNF2, Q99496
# Experimental: as §1
Binder,"PRISMA enrichment of interactor (log2) (ACP1, P24666)","PRISMA enrichment of interactor (log2) (CBX2, Q14781)","PRISMA enrichment of interactor (log2) (CDIPT, O14735)","PRISMA enrichment of interactor (log2) (CLPP, Q16740)","PRISMA enrichment of interactor (log2) (CPNE3, O75131)","PRISMA enrichment of interactor (log2) (ESF1, Q9H501)","PRISMA enrichment of interactor (log2) (GDI2, P50395)","PRISMA enrichment of interactor (log2) (HSPBP1, Q9NZL4)","PRISMA enrichment of interactor (log2) (KIF2A, O00139)",PRISMA enrichment of interactor (log2) (MACF1),"PRISMA enrichment of interactor (log2) (MRPS2, Q9Y399)","PRISMA enrichment of interactor (log2) (MRPS5, P82675)","PRISMA enrichment of interactor (log2) (MTOR, P42345)","PRISMA enrichment of interactor (log2) (PLK1, P53350)","PRISMA enrichment of interactor (log2) (POLDIP3, Q9BY77)","PRISMA enrichment of interactor (log2) (PWWP2A, Q96N64)","PRISMA enrichment of interactor (log2) (RAB7A, P51149)","PRISMA enrichment of interactor (log2) (SUPT6H, Q7KZ85)","PRISMA enrichment of interactor (log2) (UFL1, O94874)","PRISMA enrichment of interactor (log2) (ACSL3, O95573)","PRISMA enrichment of interactor (log2) (AP1B1, Q10567)","PRISMA enrichment of interactor (log2) (BTF3L4, Q96K17)","PRISMA enrichment of interactor (log2) (DDX42, Q86XP3)","PRISMA enrichment of interactor (log2) (DNAJC13, O75165)","PRISMA enrichment of interactor (log2) (FAM207A, Q9NSI2)","PRISMA enrichment of interactor (log2) (FRG1, Q14331)","PRISMA enrichment of interactor (log2) (GTF2F2, P13984)","PRISMA enrichment of interactor (log2) (HIST1H1E, P10412)","PRISMA enrichment of interactor (log2) (LIMA1, Q9UHB6)","PRISMA enrichment of interactor (log2) (OXA1L, Q15070)","PRISMA enrichment of interactor (log2) (PDXDC1, Q6P996)","PRISMA enrichment of interactor (log2) (PSMA7, O14818)","PRISMA enrichment of interactor (log2) (PUS1, Q9Y606)","PRISMA enrichment of interactor (log2) (PYCR1, P32322)","PRISMA enrichment of interactor (log2) (RAB11A, P62491)","PRISMA enrichment of interactor (log2) (RABL3, Q5HYI8)","PRISMA enrichment of interactor (log2) (RALY, Q9UKM9)","PRISMA enrichment of interactor (log2) (RBIS, Q8N0T1)","PRISMA enrichment of interactor (log2) (RGPD5, Q99666)","PRISMA enrichment of interactor (log2) (RNF2, Q99496)"
AATAHSYPRRFSTLL [IFRD1],5.04,6.22,8.16,7.87,5.12,4.54,5.35,4.57,5.7,5.73,5.38,6.02,9.71,6.15,6.31,4.6,5.66,5.15,4.8,,,,,,,,,,,,,,,,,,,,,
PLGTSVTIVNAKRFR [CTC-471J1.11],,,,,,,,,,,,,,,,,5.53,,,5.65,5.65,6.71,5.59,4.78,8.88,4.17,7.79,5.79,4.22,5.37,5.67,5.41,5.35,4.87,5.04,4.53,6.98,5.97,4.77,4.81
